The exact form of at least one protein or probe is not confirmed. Results from cells or extracts need not show a direct contact. For some assays here: No signal at the amounts used counts as a negative.

For series [1], the system named is HeLa cell nuclear extract (Homo sapiens). Description: EMSA. Particulars: 5 ug nuclear extract; no FLAT-binding species similar to HoxB13; protein in an extract.
For series [2], the system named is RIN cell nuclear extract (FLAT-binding species) (Rattus norvegicus). Description: EMSA. The following applies: 5 ug nuclear extract; shift similar to HoxB13; competed by unlabeled FLAT; protein in an extract. For orientation: In EMSA bound probe runs differently from free probe, usually more slowly.

Turning to “GATCCCCTTGTTAATAATCTAATTACCCTAGG / GATCCCTAGGGTAATTAGATTATTAACAAGGG [FLAT element probe]”, the binding result in series [1] is “no binding”; in series [2], “binds”.

The values above are taken from patent US5955579.
